Measurements published in patent US9888688B2, “Tetrazolinone compounds and applications thereof” (Sumitomo Chemical Company, Limited, priority 2013, dated 2018).
Some results were stated once for a whole list of compounds, not compound by compound.

Key:
Type in all cases: in vivo
[1] = test system: barley net blotch fungus (Pyrenophora teres); assay: Barley net blotch control test, foliar spray on barley (Test Examples 4, 16, 17, 18); conditions: barley NISHINOHOSHI, inoculated after 2 days
[2] = test system: kidney bean stem rot fungus (Sclerotinia sclerotiorum); assay: Kidney bean stem rot control test, foliar spray on kidney bean (Test Examples 5, 22, 23); conditions: kidney bean NAGAUZURA NATANE, four days after inoculation
[3] = test system: wheat leaf blotch fungus (Septoria tritici); assay: Wheat leaf blotch control test, spray before inoculation (Test Examples 6, 9, 10, Comparative Test Example); conditions: wheat APOGEE, inoculated after 4 days
[4] = test system: barley scald fungus (Rhynchosporium secalis); assay: Barley scald control test, foliar spray on barley (Test Examples 20, 21); conditions: barley NISHINOHOSHI, inoculated after 2 days
[5] = test system: cucumber anthracnose fungus (Colletotrichum lagenarium); assay: Cucumber anthracnose control test (Test Examples 28, 29); conditions: cucumber SAGAMI HANJIRO, inoculated after one day
[6] = test system: cucumber corynespora leaf spot fungus (Corynespora cassicola); assay: Cucumber corynespora leaf spot control test (Test Examples 26, 27); conditions: 200 ppm foliar spray, cucumber SAGAMI HANJIRO, inoculated after one day, 7 days

Measured: area of lesion spots relative to that on an untreated plant

Cc1cccc(-c2cc(C)c(OCc3c(C)cccc3-n3nnn(C)c3=O)c(C)c2)n1 [Present Compound 60]
≤ 30%: [1]; 500 ppm foliar spray | [2]; 200 ppm foliar spray | [2]; 500 ppm foliar spray | [3]; 200 ppm foliar spray | [4]; 200 ppm foliar spray | [5]; 200 ppm foliar spray

Cc1ccc(-c2ccc(OCc3ccccc3-n3nnn(C)c3=O)c(C)c2)cn1 [Present Compound 75]
≤ 30%: [1]; 200 ppm foliar spray | [1]; 500 ppm foliar spray | [2]; 200 ppm foliar spray | [2]; 500 ppm foliar spray | [3]; 500 ppm foliar spray | [4]; 200 ppm foliar spray | [5]; 200 ppm foliar spray

Cc1ccc(-c2ccc(OCc3ccccc3-n3nnn(C)c3=O)c(C)c2)nn1 [Present Compound 227]
≤ 30%: [2]; 500 ppm foliar spray | [6]

Cc1cc(-c2ncccc2C#N)ccc1OCc1c(C)cccc1-n1nnn(C)c1=O [Present Compound 150]
≤ 30%: [1]; 200 ppm foliar spray | [1]; 500 ppm foliar spray | [3]; 200 ppm foliar spray | [4]; 200 ppm foliar spray | [5]; 200 ppm foliar spray

Cc1cc(-c2ncccc2F)ccc1OCc1ccccc1-n1nnn(C)c1=O [Present Compound 18]
≤ 30%: [1]; 200 ppm foliar spray | [1]; 500 ppm foliar spray | [2]; 200 ppm foliar spray | [2]; 500 ppm foliar spray | [3]; 200 ppm foliar spray | [3]; 500 ppm foliar spray | [4]; 200 ppm foliar spray | [5]; 200 ppm foliar spray

Cc1cc(-c2ccc(C#N)cn2)ccc1OCc1c(C)cccc1-n1nnn(C)c1=O [Present Compound 120]
≤ 30%: [1]; 200 ppm foliar spray | [1]; 500 ppm foliar spray | [2]; 200 ppm foliar spray | [2]; 500 ppm foliar spray | [3]; 500 ppm foliar spray | [4]; 200 ppm foliar spray | [5]; 200 ppm foliar spray

Cc1cc(C)nc(-c2cc(C)c(OCc3c(C)cccc3-n3nnn(C)c3=O)cc2C)c1 [Present Compound 205]
≤ 30%: [1]; 200 ppm foliar spray | [1]; 500 ppm foliar spray | [2]; 200 ppm foliar spray | [2]; 500 ppm foliar spray | [4]; 200 ppm foliar spray | [5]; 200 ppm foliar spray

Cc1cc(-c2cccc(F)n2)ccc1OCc1c(C)cccc1-n1nnn(C)c1=O [Present Compound 121]
≤ 30%: [1]; 200 ppm foliar spray | [2]; 200 ppm foliar spray | [3]; 200 ppm foliar spray | [4]; 200 ppm foliar spray | [5]; 200 ppm foliar spray

Cc1cc(-c2cc(C#N)ccn2)ccc1OCc1c(C)cccc1-n1nnn(C)c1=O [Present Compound 119]
≤ 30%: [1]; 200 ppm foliar spray | [1]; 500 ppm foliar spray | [2]; 200 ppm foliar spray | [2]; 500 ppm foliar spray | [3]; 200 ppm foliar spray | [3]; 500 ppm foliar spray | [4]; 50 ppm foliar spray | [5]; 200 ppm foliar spray

Cc1cc(Cl)nc(-c2cc(C)c(OCc3c(C)cccc3-n3nnn(C)c3=O)cc2C)c1 [Present Compound 183]
≤ 30%: [1]; 200 ppm foliar spray | [1]; 500 ppm foliar spray | [2]; 200 ppm foliar spray | [2]; 500 ppm foliar spray | [3]; 200 ppm foliar spray | [4]; 200 ppm foliar spray | [5]; 200 ppm foliar spray

Cc1cccc(-c2ccc(OCc3c(C)cccc3-n3nnn(C)c3=O)c(Br)c2)n1 [Present Compound 61]
≤ 30%: [1]; 200 ppm foliar spray | [1]; 500 ppm foliar spray | [2]; 200 ppm foliar spray | [2]; 500 ppm foliar spray | [3]; 200 ppm foliar spray | [3]; 500 ppm foliar spray | [4]; 200 ppm foliar spray | [5]; 200 ppm foliar spray

CCc1cccc(-c2ccc(OCc3c(C4CC4)cccc3-n3nnn(C)c3=O)c(C(F)(F)F)c2)n1 [Present Compound 133]
≤ 30%: [1]; 200 ppm foliar spray | [2]; 200 ppm foliar spray | [3]; 200 ppm foliar spray | [4]; 200 ppm foliar spray | [5]; 50 ppm foliar spray

Cc1cc(-c2ncccc2F)ccc1OCc1c(C)cccc1-n1nnn(C)c1=O [Present Compound 17]
≤ 30%: [1]; 200 ppm foliar spray | [1]; 500 ppm foliar spray | [2]; 200 ppm foliar spray | [2]; 500 ppm foliar spray | [4]; 200 ppm foliar spray | [5]; 200 ppm foliar spray

Cc1cc(-c2ncc(Cl)cn2)c(F)cc1OCc1c(C)cccc1-n1nnn(C)c1=O [Present Compound 242]
≤ 30%: [1]; 200 ppm foliar spray | [1]; 500 ppm foliar spray | [2]; 200 ppm foliar spray | [2]; 500 ppm foliar spray | [4]; 200 ppm foliar spray | [5]; 200 ppm foliar spray

Cc1cc(-c2cccnc2)ccc1OCc1ccccc1-n1nnn(C)c1=O [Present Compound 66]
≤ 30%: [1]; 200 ppm foliar spray | [1]; 500 ppm foliar spray | [2]; 200 ppm foliar spray | [2]; 500 ppm foliar spray | [3]; 200 ppm foliar spray | [3]; 500 ppm foliar spray | [4]; 200 ppm foliar spray | [5]; 200 ppm foliar spray

Cc1cccc(-c2ccc(OCc3c(C4CC4)cccc3-n3nnn(C)c3=O)c(C(F)(F)F)c2)n1 [Present Compound 129]
≤ 30%: [1]; 200 ppm foliar spray | [1]; 500 ppm foliar spray | [2]; 200 ppm foliar spray | [3]; 200 ppm foliar spray | [4]; 200 ppm foliar spray | [5]; 200 ppm foliar spray

Cc1cc(-c2cccc(C#N)n2)c(C)cc1OCc1c(C)cccc1-n1nnn(C)c1=O [Present Compound 168]
≤ 30%: [1]; 200 ppm foliar spray | [1]; 500 ppm foliar spray | [2]; 200 ppm foliar spray | [2]; 500 ppm foliar spray | [3]; 200 ppm foliar spray | [4]; 200 ppm foliar spray | [5]; 200 ppm foliar spray

Cc1cccc(-n2nnn(C)c2=O)c1COc1cc(F)c(-c2ccccn2)cc1F [Present Compound 206]
≤ 30%: [1]; 200 ppm foliar spray | [1]; 500 ppm foliar spray | [2]; 200 ppm foliar spray | [2]; 500 ppm foliar spray | [3]; 500 ppm foliar spray | [4]; 200 ppm foliar spray | [5]; 200 ppm foliar spray

CCc1cccc(-c2ccc(OCc3ccccc3-n3nnn(C)c3=O)c(C(F)(F)F)c2)n1 [Present Compound 130]
≤ 30%: [1]; 200 ppm foliar spray | [1]; 500 ppm foliar spray | [2]; 200 ppm foliar spray | [2]; 500 ppm foliar spray | [3]; 200 ppm foliar spray | [4]; 200 ppm foliar spray | [5]; 200 ppm foliar spray

Cc1cc(-c2ccncn2)ccc1OCc1c(C)cccc1-n1nnn(C)c1=O [Present Compound 88]
≤ 30%: [1]; 200 ppm foliar spray | [1]; 500 ppm foliar spray | [2]; 50 ppm foliar spray | [2]; 500 ppm foliar spray | [3]; 200 ppm foliar spray | [3]; 500 ppm foliar spray | [4]; 200 ppm foliar spray | [5]; 200 ppm foliar spray
